In PubChem BioAssay AID624297 (National Center for Advancing Translational Sciences (NCATS), 2012):
Hit rate of the full screen: of about 340,000 compounds, about 6,200 (1.8%) were called active. The shares of active, inactive and inconclusive entries below differ from those in the screen. Calls come from the whole dose curve; as a rule, active = well fitted activation curve with a large enough effect; inconclusive = small, poorly fitted or top-dose-only effect; inactive = no such curve, though single readings can be large or run the other way. Potencies of inconclusive entries are doubtful fits and often do not repeat.

experiment: A quantitative high throughput screen for small molecules that induce DNA re-replication in SW480 colon adenocarcinoma cells.; note: nearly all actives have a fitted effect of over 55% in size; settings: Hoechst DNA content imaging, 48 h; series mostly up to 46.1 µM
How it was run: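 Image-based DNA-content assay: after two days of treatment, nuclei were labelled with the DNA dye Hoechst and imaged, and hits were compounds raising the count of nuclei showing high fluorescence intensity.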
Potency is the fitted concentration of half-maximal effect.

SMILES | Potency
COc1ccc(C(C)NC(=O)Nc2ccc(C(C)=O)cc2)cc1OC (stereo unspecified) | inconclusive: 0.82 µM [activator, full curve, poor fit]
CC(C)Sc1nc2c(cnn2-c2ccc(Cl)cc2)c(=O)[nH]1 | inactive
CC1CCc2[nH]c3ccc(C(=O)N4CCCC(C(F)(F)F)C4)cc3c2C1 (stereo unspecified) | inconclusive: 25.9 µM [activator, single point]
Cc1cc(NC(=O)c2ccc(N3CCCC3)c([N+](=O)[O-])c2)no1 | inconclusive: 3.66 µM [activator, full curve, poor fit]
CCc1cccc(CC)c1NC(=O)COC(=O)c1ccc2c(c1)S(=O)(=O)c1ccccc1C2=O | inconclusive: 0.103 µM [activator, full curve, poor fit]
Cc1cccc(CN2CCc3c([nH]c4ccccc34)C2CC(C)C)n1 (stereo unspecified) | inconclusive: 29.1 µM [activator, single point]
COc1ccc(O)c(C(=O)c2cnc3c(c2)CN(C)C(=O)N3)c1 | inconclusive: 18.4 µM [activator, single point]
O=C(c1ccc([N+](=O)[O-])o1)N1CCc2ccccc21 | active: 20.6 µM
Nc1ccc(Nc2ccccc2N)cc1 | inconclusive: 20.6 µM [activator, single point]
O=C(NNC(=O)c1cc(-c2ccc(Cl)c(Cl)c2)nc2ccccc12)Nc1ccccc1 | inconclusive: 29.1 µM [activator, single point]
CN1CCN(NC(=O)c2ccc(S(=O)(=O)N3CC4(C)CC3CC(C)(C)C4)cc2)CC1 (stereo unspecified) | active: 18.4 µM
CC(C)N(c1ccccc1)c1ccc(NC(=S)NCCN(C)C)cc1 | inconclusive: 32.6 µM [activator, single point]
COCc1cc(=O)n2[nH]c(-c3ccsc3-n3c(C)ccc3C)cc2n1 | inconclusive: 25.9 µM [activator, single point]
COc1ccc(C(=O)Nc2nc(-c3ccccn3)cs2)cc1S(=O)(=O)N1CCOCC1 | inactive
CN1CCN(c2nc(-c3ccccc3)c3cc(Cl)ccc3n2)CC1 | active: 7.94 µM
O=[N+]([O-])c1ccc(NC(=S)NCCc2ccccc2)cc1 | inconclusive: 16.4 µM [activator, single point]
Cc1ccc(-n2ncc3c(=O)[nH]c(SCC(=O)N4CCOCC4)nc32)cc1 | inactive
Cc1cc(Oc2ncccc2[N+](=O)[O-])c2cc(Cl)ccc2n1 | inactive
O=C(/C=C/c1ccc(Cl)cc1)c1cccnc1 | inconclusive: 29.1 µM [activator, partial curve, poor fit]
COc1ccc(C)cc1NC(=O)CSc1nnnn1Cc1ccccc1 | inactive
CN(C)CCCNC(=O)C[C@H]1C[C@H](C(=O)N2CCCCC2)[C@@]2(CCc3ccccc3)c3[nH]c4cc(CCC(=O)N(C)C)ccc4c3CCN2C1=O | inconclusive: 1.16 µM [activator, single point]
COc1ccc(OC)c(-c2csc(N(Cc3ccco3)C(=O)c3ccco3)n2)c1 | inactive
c1ccc([C@H]2CNCCN2CCc2cccc3ccccc23)cc1 | inconclusive: 18.4 µM [activator, single point]

SMILES | Potency
CCCCN(C)CCCNC(=O)c1cn(CC)c2ccc(S(=O)(=O)N3CCc4ccccc4C3)cc2c1=O | inconclusive: 32.6 µM [activator, partial curve, poor fit]
COc1cccc(C=Nc2cc(C(C)C)c(O)cc2C)c1O | inconclusive: 23.1 µM [activator, single point]
CCN1CCc2c(sc(NC(=O)c3ccc(S(=O)(=O)N(CC)c4ccccc4)cc3)c2C(N)=O)C1 | inconclusive: 23.1 µM [activator, single point]
O=C(NC1CCCc2ccccc21)c1cn2ccccc2n1 (stereo unspecified) | inactive
O=C(N/C(=C\c1ccco1)C(=O)N1CCCC(CO)C1)c1ccccc1 (stereo unspecified) | inactive
O=C1/C(=C\c2ccco2)NC(=S)N1c1ccccc1 | inconclusive: 0.731 µM [activator, full curve, poor fit]
CNC(=S)N(Cc1cccs1)Cc1cc2ccc(OC)cc2[nH]c1=O | inactive
Cc1cc2nc(-c3ccc(SCC(=O)Nc4ccc(S(=O)(=O)N5CCCC5)cc4)nc3)[nH]c2cc1C | inconclusive: 16.4 µM [activator, single point]
O=C(NC(=S)Nc1ccccc1[N+](=O)[O-])c1ccccc1Cl | inactive
Cc1ccc(NC(=O)CN(C)CC(=O)Nc2sc3c(c2C(N)=O)CCC3)cc1 | inactive
CCN(CC)CCCN(Cc1cc2cc3c(cc2[nH]c1=O)OCO3)C(=S)Nc1ccccc1OC | inactive
COc1ccc(OCC(=O)Nc2c(C(=O)N(CCN(C)C)Cc3ccco3)oc3ccccc23)cc1 | inconclusive: 23.1 µM [activator, single point]
CCCOC(=O)c1cccc(NC(=O)COc2ccc([N+](=O)[O-])cc2)c1 | inactive
Cc1nnc(NC(=O)CC23CC4CC(CC(C4)C2)C3)s1 | inactive
O=C(c1ccco1)N1N=C(c2cccs2)CC1c1ccccc1O (stereo unspecified) | inactive
Cc1cccc(-c2cccc(NC(=O)C3CCCN(C(=O)c4csc(C)n4)C3)c2)c1 (stereo unspecified) | inconclusive: 29.1 µM [activator, single point]
CC1(C)NC(=O)N(CCOCCOc2cccc(Oc3ccccc3)c2)C1=O | inactive
CC(Nc1ccc([N+](=O)[O-])cc1[N+](=O)[O-])c1ccccc1 (stereo unspecified) | inactive
Nc1nc(N)nc(-c2cc(F)ccc2O)n1 | inconclusive: 5.17 µM [activator, full curve, poor fit]
CC(C)(C)S(=O)(=O)c1cnc2c(-c3ccsc3)cnn2c1N | inconclusive: 25.9 µM [activator, partial curve, poor fit]
Cc1cc(=O)oc2cc(OCC(=O)OCC(=O)Nc3ccccc3Br)ccc12 | inconclusive: 0.103 µM [activator, full curve, poor fit]
O=C(CCCc1ccccc1)Nc1cccc2c1CCCC2 | inactive
CC1(C)Oc2ccc3ccc(=O)oc3c2/C(=C/Nc2cccc(O)c2)C1=O | inconclusive: 13 µM [activator, partial curve]

Exported as labelled records: three of the compounds above
CC(C)N(c1ccccc1)c1ccc(NC(=S)NCCN(C)C)cc1
  Potency: inconclusive: 32.6 µM [activator, single point]
Cc1ccc(-n2ncc3c(=O)[nH]c(SCC(=O)N4CCOCC4)nc32)cc1
  Potency: inactive
O=C(/C=C/c1ccc(Cl)cc1)c1cccnc1
  Potency: inconclusive: 29.1 µM [activator, partial curve, poor fit]
